Laboratory results as given in article PMC10803214.
These are yes or no findings as the source states them, for the method shown. In cells and extracts the contact can be indirect. Some entries that bind do so weakly or less than the wild type.

Target: T1, DmMIC60 (endogenous, fly mitochondria) (D. melanogaster (endogenous in flies)) (UniProt P91928)
T1 sequence: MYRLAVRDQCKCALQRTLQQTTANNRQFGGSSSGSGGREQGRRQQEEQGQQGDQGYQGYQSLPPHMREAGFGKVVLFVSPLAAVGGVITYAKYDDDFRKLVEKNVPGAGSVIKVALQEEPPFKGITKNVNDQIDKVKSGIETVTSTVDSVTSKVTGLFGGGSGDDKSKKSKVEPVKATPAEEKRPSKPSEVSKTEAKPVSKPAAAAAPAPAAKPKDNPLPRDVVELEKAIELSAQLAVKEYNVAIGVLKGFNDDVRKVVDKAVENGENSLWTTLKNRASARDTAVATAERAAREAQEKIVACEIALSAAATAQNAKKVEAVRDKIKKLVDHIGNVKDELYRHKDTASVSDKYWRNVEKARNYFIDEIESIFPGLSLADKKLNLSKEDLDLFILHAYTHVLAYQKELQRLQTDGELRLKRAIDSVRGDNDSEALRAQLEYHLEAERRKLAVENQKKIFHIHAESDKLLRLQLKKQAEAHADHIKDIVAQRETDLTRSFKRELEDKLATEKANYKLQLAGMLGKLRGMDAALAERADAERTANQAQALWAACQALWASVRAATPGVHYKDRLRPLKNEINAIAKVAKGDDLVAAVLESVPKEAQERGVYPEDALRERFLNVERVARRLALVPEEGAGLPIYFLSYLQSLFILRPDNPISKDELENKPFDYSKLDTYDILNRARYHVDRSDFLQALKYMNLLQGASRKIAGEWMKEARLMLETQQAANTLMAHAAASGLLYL
Experiment: co-IP; mitochondria isolated from WT flies (1 mg), solubilised with 1% digitonin; antisera on protein A-Sepharose, 1 h at 4°C, 10 washes with 0.3% digitonin, eluted with 0.1 M glycine pH 2.8; immunoblot; DmMIC60 and CG41128 used as baits

- binding: binds
B1: DmMIC13 (endogenous, fly mitochondria) (protein, UniProt Q9VVH3 1-122)
chain: MVLGFLVRGGLVAATVYYTQKVGIWGDSDQTDKLYNDIKSELRPHVQKLEKQLPFEVPQLPKTGEMRFLAKHYYNEGVKNTFRFIHMLPCYAGRGLKKVKDTFQDFAQSPAIAGGAESSPPK
